Measured values published in PubChem BioAssay AID1487 (National Center for Advancing Translational Sciences (NCATS), 2009).
This is one part of the list. The main result of the screen is listed elsewhere. These columns were measured beside it and carry no call. Most of these compounds were active or inconclusive in the main read-out, so they are no random draw. Words in brackets tell the shape of the fitted curve; partial curves, single points and poor fits give uncertain potencies.

Assay: qHTS Assay for Modulators of Lamin A Splicing
Settings: HeLa LMNA splicing GFP/RFP minigene ratio, 48 h
Outline: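 S3 HeLa cells stably expressing lamin A-EGFP splicing minigene plus DsRed2, 600 cells/well, 48 h compound exposure at 37C. Laser-scanning cytometry; analysed as GFP (500-530 nm)/RFP (575-640 nm) total intensity ratio; 0.5% DMSO vehicle.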

[1] = measured here: GFP splicing reporter channel
[2] = measured here: RFP viability control channel

SMILES	AC50 [1]	AC50 [2]
CCCOc1ccc(Cc2nn3c(=O)/c(=C/c4ccco4)sc3nc2=O)cc1	22.4 µM [falling, single point]	25.1 µM [falling, single point]
COc1ccc(C(=NNc2ccccc2C(=O)O)c2ccc(OC)cc2)cc1	15.8 µM [rising, single point]	–
N=c1ccn2c(n1)OC1C(O)C(CO)OC12 (stereo not drawn)	0.0891 µM [falling, full curve]	0.447 µM [rising, full curve, poor fit]
O=C(N/N=C/c1ccc(O)cc1)c1[nH]c2ccc(Br)cc2c1-c1ccccc1	–	3.98 µM [rising, partial curve]
CCn1c(C(=O)N2CCCC(C(=O)NCCCc3ccccc3)C2)cc2sccc21 (stereo not drawn)	–	11.2 µM [rising, partial curve]
Cc1ccc(C(=O)Nc2onc(C)c2C#N)cc1	–	8.91 µM [rising, partial curve]
O=C(OCc1ccccc1)c1cccnc1	0.224 µM [falling, full curve, poor fit]	1 µM [falling, partial curve, poor fit]
CC(=O)Oc1cc(C)c(OC(C)=O)c2ccccc12	–	0.000794 µM [rising, full curve, poor fit]
COc1ccc(CC(=O)NCc2nc(-c3ccccc3)no2)cc1	7.94 µM [rising, partial curve, poor fit]	–
CC(=O)Nc1ccc(NC(=O)CCC(=O)c2ccc(C)cc2)cc1	31.6 µM [falling, partial curve]	–
CC1=CCC2COC(c3ccc[n+](Cc4ccccc4)c3)C1C2 (stereo not drawn)	–	12.6 µM [rising, partial curve]
CCOC(=O)N=Nc1c2ccccc2c2nc3no[nH]c3nc12	–	2.82 µM [falling, single point]
CNc1oc(-c2ccc(COc3ccc(C)cc3)o2)nc1C#N	1.78 µM [rising, full curve, poor fit]	3.16 µM [rising, full curve, poor fit]
CCN(CC)C(=O)C1CCCN(c2ccccc2[N+](=O)[O-])C1 (stereo not drawn)	–	0.1 µM [falling, full curve, poor fit]
CC(C)C(=O)N1CCN(c2ccc(NC(=O)COc3ccccc3[N+](=O)[O-])cc2)CC1	0.891 µM [falling, full curve, poor fit]	–
CCCOc1ccc(OCC(=O)c2[nH]c(C)c(C(C)=O)c2C)cc1	–	6.31 µM [rising, full curve]
Cc1cccc(NC(=O)CSc2nnc(CCCCCNC(=O)OC(C)(C)C)o2)c1C	11.2 µM [rising, partial curve, poor fit]	–
O/N=C/c1cccn1-c1ccc(O)cc1	14.1 µM [rising, single point]	12.6 µM [rising, single point]
CCC(C)CN1CCC(CO)(Cc2ccccc2Cl)CC1 (stereo not drawn)	0.891 µM [falling, full curve, poor fit]	–

SMILES	AC50 [1]	AC50 [2]
N=C(N)SCCN	–	0.00316 µM [falling, full curve, poor fit]
CCOC(=O)c1ccc(NC(=O)CSc2nc(SC)ns2)cc1	11.2 µM [rising, single point]	–
Cc1ccc(C(=O)N2C3C=CC(C3)C2(C(F)(F)F)C(F)(F)F)cc1 (stereo not drawn)	0.708 µM [falling, full curve]	1 µM [falling, full curve]
O=C(NC(=S)Nc1nc2c(s1)CCCC2)c1ccc(C(=O)c2ccccc2)cc1	–	0.224 µM [rising, full curve, poor fit]
Nc1ncnc2c1c(I)cn2C1OC(CO)C(O)C1O (stereo not drawn)	5.01 µM [falling, full curve]	2.82 µM [falling, full curve]
Cc1nc(C)c(-c2csc(NCCc3ccccc3)n2)s1	–	35.5 µM [rising, single point]
COc1cccc(C(=O)O/N=C2\CCS(=O)(=O)c3sccc32)c1	3.98 µM [falling, partial curve]	–
CC(=O)c1ccc(NC(=O)CSc2nnc(NC(=O)Nc3ccccc3)s2)cc1	0.0282 µM [rising, full curve, poor fit]	20 µM [rising, partial curve, poor fit]
O=C(CSc1ccc(-c2ccc(F)cc2)nn1)NCCc1ccccc1	35.5 µM [falling, partial curve, poor fit]	–
Cc1ccc(OCC(=O)N2CCN(C(=O)c3cccc(F)c3)CC2)cc1	0.282 µM [rising, full curve, poor fit]	–
CC(C)(C)c1cc(C(C)(C)C)c2oc(=O)c(-c3nc4ccc(C(=O)O)cc4[nH]3)cc2c1	5.01 µM [falling, full curve, poor fit]	3.55 µM [falling, full curve]
CCC(=O)Nc1nc2ccccc2n1Cc1ccccc1	28.2 µM [rising, single point]	35.5 µM [rising, single point]
COc1cc(CNn2nnnc2N)cc(Br)c1OCc1c(Cl)cccc1Cl	20 µM [rising, single point]	28.2 µM [rising, single point]
CCOC(=O)c1ccccc1NC(=O)CSc1cc(C)[nH]c(=O)n1	0.141 µM [falling, single point]	–
CCOC(=O)N1CCN(C(=O)c2ccccc2-c2ccccc2)CC1	–	11.2 µM [rising, partial curve, poor fit]
COc1ccccc1OCC(=O)NNC(=O)Nc1ccc(Cl)cc1	–	7.08 µM [rising, partial curve, poor fit]
Cc1ccnc(N=Cc2c(O)ccc3oc4c(c23)CCCC4)c1	–	22.4 µM [rising, single point]
CCn1c(SCC(=O)c2cc(C)n(CC3CCCO3)c2C)nc2ccccc21 (stereo not drawn)	–	35.5 µM [rising, single point]
CC(=O)NNC(=O)c1nc(-c2ccccc2)c(C)o1	35.5 µM [rising, single point]	–

SMILES	AC50 [1]	AC50 [2]
CCOC(=O)c1[nH]c2ccc(OC)cc2c1NC(=O)OC	14.1 µM [rising, single point]	25.1 µM [rising, single point]
Cc1cccc(OCc2nnc(SCc3nc4cc(C(F)(F)F)ccc4c(=O)[nH]3)o2)c1	7.08 µM [rising, partial curve]	–
CC(=O)Oc1cc2c(C(=O)NCCCN3CCOCC3)c(C)oc2c2ccccc12	12.6 µM [rising, partial curve]	10 µM [rising, partial curve]
CCCCn1c(-c2ccc([N+](=O)[O-])cc2)n[nH]c1=S	7.94 µM [rising, single point]	0.0501 µM [rising, full curve, poor fit]
CCCCC1C(=O)N(c2ccccc2)N(c2ccccc2)C1=O	0.00794 µM [rising, full curve, poor fit]	0.01 µM [rising, full curve, poor fit]
CS(=O)(=O)c1ccc(C(=O)N2CCN(Cc3ccccc3)CC2)cc1	–	0.0631 µM [rising, full curve, poor fit]
Cn1c(CO)cnc1SCC(=O)c1ccc(Cl)cc1	6.31 µM [falling, single point]	0.631 µM [falling, full curve, poor fit]
C=CCn1c(COc2ccc3c(c2)CCCC3)nnc1SCC(=O)Nc1cccc(SC)c1	35.5 µM [falling, single point]	17.8 µM [falling, single point]
Cc1ccc(O)c(C2=NOC(O)(C(F)(F)C(F)F)C2)c1 (stereo not drawn)	31.6 µM [rising, single point]	35.5 µM [rising, single point]
CN(CCCOc1ccccc1Br)Cc1ccccc1	–	0.316 µM [falling, full curve, poor fit]
O=C(Nc1ccccc1N1CCCCC1)c1ccc(-c2ccc(Cl)cc2)o1	–	5.62 µM [rising, single point]
COc1ccc(CNc2nc3ccccc3n2CCN2CCCCC2)c(OC)c1	–	11.2 µM [rising, single point]
COc1ccc(/C=C/C(=O)N(CC(C)C)CC(C)C)cc1Br	–	2.51 µM [rising, full curve, poor fit]
COc1cc(NC(=O)CSCC(=O)Nc2cccc(C(F)(F)F)c2)c(Cl)cc1Cl	–	14.1 µM [falling, partial curve, poor fit]
CCOC(=O)c1[nH]c(C)c(CCC(=O)N2CCN(c3cccc(C)c3C)CC2)c1C	35.5 µM [rising, single point]	35.5 µM [rising, single point]
CSc1nnc2ccc(-c3ccccn3)nn12	0.794 µM [rising, full curve]	1.26 µM [rising, full curve]
CCCCCCCCOC(=O)C1=C(C)Nc2nnnn2C1c1cccs1 (stereo not drawn)	35.5 µM [falling, single point]	28.2 µM [falling, single point]
CS(=O)(=O)NCCCCNc1ccc(C(F)(F)F)cc1[N+](=O)[O-]	17.8 µM [falling, partial curve, poor fit]	–
N#CC1=C(N)N2C(=C(C#N)C13CCCCC3)SC1CCCCC12O (stereo not drawn)	–	12.6 µM [rising, partial curve]

Single values from the results shown:
In AC50 [1], `Cc1cccc(OCc2nnc(SCc3nc4cc(C(F)(F)F)ccc4c(=O)[nH]3)o2)c1` is entered as 7.08 µM [rising, partial curve]
In AC50 [2], `COc1cc(NC(=O)CSCC(=O)Nc2cccc(C(F)(F)F)c2)c(Cl)cc1Cl` is entered as 14.1 µM [falling, partial curve, poor fit]
